Results from PubChem BioAssay AID1347076 (National Center for Advancing Translational Sciences (NCATS), 2019).
About 13,000 (3.2%) of roughly 400,000 compounds were called active. The inconclusive results got no clear call from the source; some entries with a clear call stand among them for comparison. Calls come from the whole dose curve; as a rule, active = well fitted cell-killing curve with a large enough effect; inconclusive = small, poorly fitted or top-dose-only effect, or effect the other way; inactive = flat fitted curve, though single readings scatter. A potency beside an inconclusive call is a rough fit, not a confirmed value.

test: qHTS assay for MDR1-selective chemotherapeutics: Primary screen using the drug-selected MDR subline cells KB-V1; conditions: KB-V1 MDR cells viability, CellTiter-Glo, 72 h; activity change, negative = cytotoxicity: at 46.1 µM (top of the series); note: nearly all actives have a fitted effect of over 60% in size
In short: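 KB-V1 MDR subline cells in DMEM (phenol-red free, 10% FBS) exposed to compounds in qHTS concentration series for 72 h at 37 degrees C. Viability read by CellTiter-Glo luminescence; concentration-effect curves fitted after normalization and correction.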
% is set by controls: 0 for no effect and ±100 for the full control effect; potency is the fitted concentration of half-maximal effect.

Structure (SMILES) | activity change, negative = cytotoxicity | Potency
CCNc1nc(SCC(=O)Nc2ccc(Cl)c(Cl)c2)nc(N(C)C)n1 | inactive: 1.8% | –
O=C(Nc1ccc(Oc2ccccc2)cc1)c1ccco1 | – | inconclusive: 9.2 µM [cytotoxic, partial curve, poor fit]
Clc1cccc(CN2CCCCCC2)c1 | inactive: 2.45% | –
C1=Cc2ccccc2/C1=C(\Cc1ccncc1)Oc1ccncc1 | inactive: -10.1% | –
CCc1cc2c(=O)n(Cc3ccco3)c(SCC(=O)N(C)C3CCS(=O)(=O)C3)nc2s1 (stereo unspecified) | – | inconclusive: 23.1 µM [cytotoxic, single point]
CC1CCN(c2ccc(C(=O)O)cc2NS(=O)(=O)c2ccc(Br)cc2)CC1 | – | inconclusive: 5.17 µM [cytotoxic, partial curve]
Cc1ccc(CN(C(=O)c2ccccc2F)c2ccccn2)o1 | inactive: 0% | –
CC(=O)c1ccc2c(c1)C1C=CCC1C(c1cc3c(cc1Br)OCO3)N2 (stereo unspecified) | – | active: 6.51 µM
Cc1nc(C)c(C(=O)Nc2ccccc2-c2ccccc2)o1 | – | inconclusive: 14.6 µM [cytotoxic, partial curve, poor fit]
O=C(Nc1ccc(N2CCN(C(=O)c3cccs3)CC2)cc1)c1ccccc1F | – | active: 7.31 µM
Nc1nonc1-c1nc2ccccc2n1Cc1cccc(Cl)c1 | inactive: -18.2% | –
Cc1nnc2n1N=CC=C(c1ccccc1)S2 | – | inconclusive: 35.5 µM [cytotoxic, single point]
CCCNC(=O)COC(=O)C1CCN(S(=O)(=O)c2ccc3c(c2)OCCO3)CC1 | – | inconclusive: 29.1 µM [rising, single point]
CCOc1ccc(NC(=S)N2CCC(NC(=O)c3ccco3)CC2)cc1 | inactive: -0.409% | –
CN(C)c1ccc(/C=C(\C#N)C(=O)Nc2nc3c(s2)CCN(Cc2ccccc2)C3)cc1 | – | inconclusive: 5.8 µM [cytotoxic, partial curve]
O=C(c1ccc(Cl)c(S(=O)(=O)N2CCCC2)c1)N1CCN(c2ncccn2)CC1 | – | inconclusive: 20.6 µM [cytotoxic, single point]
Cc1cc(C)c(C)c(OC(=O)c2sc(Cl)nc2C)c1 | inactive: -6.66% | –
CC(C)[C@H](NC(=O)c1ccc(F)cc1)C(=O)OCC(=O)NC(=O)c1cccn1C | – | inconclusive: 8.2 µM [cytotoxic, partial curve]
NC(=O)COc1ccccc1/C=C1/SC(=O)N(CC(=O)N2CCc3ccccc3C2)C1=O | – | active: 14.6 µM
O=C(CN1c2ccccc2Sc2ccccc21)NNC(=O)Nc1cccc(Cl)c1 | inactive: -8.4% | –
CCCCn1nnnc1C(c1cc2ccccc2o1)N1CCN(c2ccncc2)CC1 (stereo unspecified) | – | inconclusive: 9.2 µM [cytotoxic, partial curve]
CCCCN(C=O)c1c(CC)nc2c(OCC(=O)N3CCOCC3)cccn12 | inactive: -2.79% | –
O=[N+]([O-])c1ccccc1NC(=S)N/N=C/c1ccc(O)c(O)c1 | – | inconclusive: 23.1 µM [cytotoxic, single point]

In another format: 14 of the compounds above
Structure (SMILES),"activity change, negative = cytotoxicity",Potency
Cc1ccc(CN(C(=O)c2ccccc2F)c2ccccn2)o1,inactive: 0%,–
CC(=O)c1ccc2c(c1)C1C=CCC1C(c1cc3c(cc1Br)OCO3)N2 (stereo unspecified),–,active: 6.51 µM
Cc1nc(C)c(C(=O)Nc2ccccc2-c2ccccc2)o1,–,"inconclusive: 14.6 µM [cytotoxic, partial curve, poor fit]"
O=C(Nc1ccc(N2CCN(C(=O)c3cccs3)CC2)cc1)c1ccccc1F,–,active: 7.31 µM
Nc1nonc1-c1nc2ccccc2n1Cc1cccc(Cl)c1,inactive: -18.2%,–
Cc1nnc2n1N=CC=C(c1ccccc1)S2,–,"inconclusive: 35.5 µM [cytotoxic, single point]"
CCCNC(=O)COC(=O)C1CCN(S(=O)(=O)c2ccc3c(c2)OCCO3)CC1,–,"inconclusive: 29.1 µM [rising, single point]"
CCOc1ccc(NC(=S)N2CCC(NC(=O)c3ccco3)CC2)cc1,inactive: -0.409%,–
CN(C)c1ccc(/C=C(\C#N)C(=O)Nc2nc3c(s2)CCN(Cc2ccccc2)C3)cc1,–,"inconclusive: 5.8 µM [cytotoxic, partial curve]"
O=C(c1ccc(Cl)c(S(=O)(=O)N2CCCC2)c1)N1CCN(c2ncccn2)CC1,–,"inconclusive: 20.6 µM [cytotoxic, single point]"
Cc1cc(C)c(C)c(OC(=O)c2sc(Cl)nc2C)c1,inactive: -6.66%,–
CC(C)[C@H](NC(=O)c1ccc(F)cc1)C(=O)OCC(=O)NC(=O)c1cccn1C,–,"inconclusive: 8.2 µM [cytotoxic, partial curve]"
NC(=O)COc1ccccc1/C=C1/SC(=O)N(CC(=O)N2CCc3ccccc3C2)C1=O,–,active: 14.6 µM
O=C(CN1c2ccccc2Sc2ccccc21)NNC(=O)Nc1cccc(Cl)c1,inactive: -8.4%,–

(cont.)

Structure (SMILES) | activity change, negative = cytotoxicity | Potency
O=c1cc(CSc2nc(NCc3ccccc3)c3ccccc3n2)nc2ccc(Cl)cn12 | – | active: 2.31 µM
Cc1cc(NC(=O)C2C3C(=O)N(Cc4ccc(Cl)cc4)C(C(=O)NC4CCCCC4)C34C=CC2(C)O4)no1 (stereo unspecified) | – | inconclusive: 29.1 µM [cytotoxic, partial curve, poor fit]
CCS(=O)(=O)C1=NN2C(=N)/C(=C\c3ccc(OS(=O)(=O)c4ccccc4)cc3)C(=O)N=C2S1 | – | inconclusive: 4.61 µM [rising, full curve, poor fit]
O=C1C=C(O)c2cccc(O)c2C1=O | inactive: -27.3% | –
CC(=O)c1cccc(OCc2cc(C(=O)N(C)C(C)c3ccccn3)no2)c1 (stereo unspecified) | – | inconclusive: 23.1 µM [cytotoxic, single point]
COc1ccc(CCNC(=O)c2c(O)nc3ccccn3c2=O)cc1 | – | inconclusive: 20.6 µM [cytotoxic, partial curve, poor fit]
CCC(=O)Nc1cc(C(=O)OCC(=O)c2ccc(Cl)cc2Cl)ccc1C | – | inconclusive: 29.1 µM [cytotoxic, single point]
COc1ccc(CN2CCN(C(=O)c3ccccc3C(=O)c3ccccc3)CC2)cc1OC | – | active: 16.4 µM
O=C(NC(c1ccc(Cl)cc1)c1ccccn1)C1CCN(CCOc2ccc(Cl)cc2Cl)CC1 (stereo unspecified) | – | inconclusive: 20.6 µM [cytotoxic, partial curve, poor fit]
O=C(NCC1CCN(c2ccc(S(=O)(=O)N3CCOCC3)cc2)CC1)c1cccc(Cl)c1 | – | inconclusive: 25.9 µM [cytotoxic, single point]
Cc1noc(C)c1C(=O)N1CCC1(C)C(=O)NS(=O)(=O)c1ccc(F)cc1F (stereo unspecified) | inactive: 0.286% | –
Cc1cc(=O)oc2cc(NC(=O)c3cc([N+](=O)[O-])ccc3N3CCOCC3)ccc12 | – | inconclusive: 7.31 µM [cytotoxic, partial curve]
Cc1ccc2cc(C#N)c(N3CCCC3)nc2c1C | inactive: -15.5% | –
C/C(=N\NC(=O)c1cccc(S(=O)(=O)Nc2ccc(C)cc2C)c1)c1ccncc1 | inactive: 10.5% | –
CC(=O)Nc1ccc(NC(=O)CSc2nc3nc(-c4cccs4)cc(C(F)(F)F)c3c(=O)[nH]2)cc1 | – | inconclusive: 3.66 µM [rising, full curve, poor fit]
COc1ccc(NC(=O)CSc2nnnn2C2CCCCC2)cc1 | – | inconclusive: 29.1 µM [cytotoxic, single point]
O=C(/C=C/[C@H]1O[C@@H](n2ccc(=O)[nH]c2=O)[C@H](O)[C@@H]1O)N[C@@H](Cc1ccccc1)C(=O)O | inactive: 9.76% | –
Cc1cc2ccccc2n1CCNC(=O)c1ccccc1 | inactive: 0% | –
Cc1cccc(N2C(=O)CS(=O)(=O)C23C(=O)N(Cc2c(F)cccc2Cl)c2ccccc23)c1 (stereo unspecified) | – | active: 5.8 µM
Cc1ccc(-c2nnc(-c3cccc(NC(=O)c4cccs4)c3)o2)cc1 | – | active: 11.6 µM
CCOc1ccc(CCNC(=O)c2cccc(-n3cnnn3)c2)cc1OCC | – | active: 18.4 µM
COc1ccc(NC(=O)C2(C)Cc3c(-c4cccc(C(F)(F)F)c4)ccnc3O2)cn1 (stereo unspecified) | – | inconclusive: 20.6 µM [cytotoxic, partial curve, poor fit]
COc1ccc(CNC(=O)c2csc(Cc3ccc(Cl)cc3)n2)cc1 | – | inconclusive: 29.1 µM [cytotoxic, single point]
